{"source": "PubChem BioAssay AID686938 (Drosophila RNAi Screening Center, 2013)", "assay": "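Looking for CRAC channel components and the factors controlling them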 (primary screen)", "system": "Drosophila S2R+ cells", "reagent": "long dsRNA against Drosophila genes, about 0.25 µg dsRNA per well, roughly 10,000 cells", "duration": "5 days of knock-down before the calcium assay", "challenge": "thapsigargin (SERCA pump blocker) to empty calcium stores; entry signal taken 4 min after adding it", "measured": "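Per-well fluo-4 fluorescence in two replicates, unnormalised, measured in resting cells and 4 min after store depletion by the SERCA blocker thapsigargin; ratio of the two present in few wells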", "scale": "calcium entry signal: higher = stronger calcium signal after store depletion; resting calcium signal: higher = higher resting calcium signal", "units": "calcium entry signal in fluorescence units; resting calcium signal in fluorescence units", "rule for the call": "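Hit if the duplicate-averaged plate z-score for entry over resting signal is under −3; wells with weak total dye signal (Fmax z < −2) or more than 5 off-targets removed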", "calls": "active = strongly reduced calcium entry; inactive = no strong reduction", "note": "The deposit covers about 23,000 reagents; shown is an unselected part of those with a known target gene and a result. Over the whole deposit, 75 (0.33%) got an active call. 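Raw plate signals without normalisation; calls rest on plate z-scores that were not deposited; ratio present for only 364 wells.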 A number with no mark means an inactive call. Reagents against one gene are numbered here. The record does not give: the dose of the treatment."}
{"gene":"Galt","dsRNA no.":1,"calcium entry signal, replicate 1":4.78e7,"resting calcium signal, replicate 1":2.73e7}
{"gene":"CG33469","dsRNA no.":1,"calcium entry signal, replicate 1":4.04e7,"calcium entry signal, replicate 2":3.67e7,"resting calcium signal, replicate 1":2.31e7,"resting calcium signal, replicate 2":1.73e7}
{"gene":"Prosalpha2","dsRNA no.":1,"calcium entry signal, replicate 1":1.70e7,"calcium entry signal, replicate 2":2.01e7,"resting calcium signal, replicate 1":1.34e7,"resting calcium signal, replicate 2":1.50e7}
{"gene":"Jon99Cii","dsRNA no.":1,"calcium entry signal, replicate 1":3.86e7,"calcium entry signal, replicate 2":6.24e7,"resting calcium signal, replicate 1":1.98e7,"resting calcium signal, replicate 2":2.66e7}
{"gene":"Jon99Cii","dsRNA no.":2,"calcium entry signal, replicate 1":5.04e7,"calcium entry signal, replicate 2":3.91e7,"resting calcium signal, replicate 1":2.27e7,"resting calcium signal, replicate 2":1.62e7}
{"gene":"Sbat","dsRNA no.":1,"calcium entry signal, replicate 1":2.93e7,"calcium entry signal, replicate 2":3.80e7,"resting calcium signal, replicate 1":1.63e7,"resting calcium signal, replicate 2":1.86e7}
{"gene":"CG14408","dsRNA no.":1,"calcium entry signal, replicate 1":2.93e7,"calcium entry signal, replicate 2":3.32e7,"resting calcium signal, replicate 1":1.42e7,"resting calcium signal, replicate 2":1.58e7}
{"gene":"CG8851","dsRNA no.":1,"calcium entry signal, replicate 1":3.30e7,"calcium entry signal, replicate 2":3.86e7,"resting calcium signal, replicate 1":1.64e7,"resting calcium signal, replicate 2":1.85e7}
{"gene":"SmydA-6","dsRNA no.":1,"calcium entry signal, replicate 1":3.20e7,"calcium entry signal, replicate 2":4.03e7,"resting calcium signal, replicate 1":1.49e7,"resting calcium signal, replicate 2":1.80e7}
{"gene":"cmb","dsRNA no.":1,"calcium entry signal, replicate 1":2.89e7,"calcium entry signal, replicate 2":3.45e7,"resting calcium signal, replicate 1":1.56e7,"resting calcium signal, replicate 2":1.67e7}
{"gene":"CG4269","dsRNA no.":1,"calcium entry signal, replicate 1":3.91e7,"calcium entry signal, replicate 2":4.19e7,"resting calcium signal, replicate 1":1.97e7,"resting calcium signal, replicate 2":1.97e7}
{"gene":"CG13177","dsRNA no.":1,"calcium entry signal, replicate 1":3.00e7,"calcium entry signal, replicate 2":2.43e7,"resting calcium signal, replicate 1":1.46e7,"resting calcium signal, replicate 2":1.04e7}
